Three substances from article PMC5602300 can be followed below.

By UniProt entry, the sequences of proteins in these tests, tags left out. Where a name states a change or a piece, a line headed by the entry shows the natural chain unless it says otherwise.
UniProt Q96R06: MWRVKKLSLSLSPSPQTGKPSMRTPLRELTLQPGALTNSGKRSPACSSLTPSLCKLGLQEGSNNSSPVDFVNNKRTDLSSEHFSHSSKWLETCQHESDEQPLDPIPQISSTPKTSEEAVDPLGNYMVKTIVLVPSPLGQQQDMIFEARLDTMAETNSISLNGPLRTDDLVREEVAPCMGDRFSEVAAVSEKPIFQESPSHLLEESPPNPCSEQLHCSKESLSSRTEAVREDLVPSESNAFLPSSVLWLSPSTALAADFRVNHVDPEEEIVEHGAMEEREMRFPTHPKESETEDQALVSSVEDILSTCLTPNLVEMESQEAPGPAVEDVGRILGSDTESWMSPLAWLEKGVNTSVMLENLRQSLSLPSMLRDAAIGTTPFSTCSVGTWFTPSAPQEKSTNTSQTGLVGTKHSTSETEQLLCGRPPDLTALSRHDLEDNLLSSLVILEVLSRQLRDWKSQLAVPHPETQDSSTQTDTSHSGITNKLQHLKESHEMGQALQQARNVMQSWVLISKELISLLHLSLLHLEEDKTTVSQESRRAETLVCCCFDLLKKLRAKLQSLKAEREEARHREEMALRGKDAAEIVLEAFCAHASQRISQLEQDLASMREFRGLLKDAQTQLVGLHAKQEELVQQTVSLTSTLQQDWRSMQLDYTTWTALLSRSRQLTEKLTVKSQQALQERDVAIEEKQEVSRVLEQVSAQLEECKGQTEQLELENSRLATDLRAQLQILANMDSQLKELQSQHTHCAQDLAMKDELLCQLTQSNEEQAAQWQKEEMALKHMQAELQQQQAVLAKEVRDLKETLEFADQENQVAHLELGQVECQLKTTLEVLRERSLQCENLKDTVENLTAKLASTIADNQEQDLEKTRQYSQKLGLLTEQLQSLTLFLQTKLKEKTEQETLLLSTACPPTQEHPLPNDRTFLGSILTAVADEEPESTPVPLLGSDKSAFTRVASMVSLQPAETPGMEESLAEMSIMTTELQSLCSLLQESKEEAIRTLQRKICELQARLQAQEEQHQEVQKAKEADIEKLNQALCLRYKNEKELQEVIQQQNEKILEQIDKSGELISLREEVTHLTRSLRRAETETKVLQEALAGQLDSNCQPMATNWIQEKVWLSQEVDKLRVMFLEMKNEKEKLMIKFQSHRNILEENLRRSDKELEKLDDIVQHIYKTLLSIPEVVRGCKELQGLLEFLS
UniProt Q9Y448: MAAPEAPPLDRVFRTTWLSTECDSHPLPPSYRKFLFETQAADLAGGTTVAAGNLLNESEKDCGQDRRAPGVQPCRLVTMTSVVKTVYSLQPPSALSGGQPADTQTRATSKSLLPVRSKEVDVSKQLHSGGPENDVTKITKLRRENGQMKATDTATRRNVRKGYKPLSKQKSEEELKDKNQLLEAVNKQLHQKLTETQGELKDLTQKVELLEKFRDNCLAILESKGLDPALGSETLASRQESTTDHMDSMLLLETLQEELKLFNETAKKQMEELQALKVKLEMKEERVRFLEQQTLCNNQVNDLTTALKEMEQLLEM
UniProt Q9Y6D6: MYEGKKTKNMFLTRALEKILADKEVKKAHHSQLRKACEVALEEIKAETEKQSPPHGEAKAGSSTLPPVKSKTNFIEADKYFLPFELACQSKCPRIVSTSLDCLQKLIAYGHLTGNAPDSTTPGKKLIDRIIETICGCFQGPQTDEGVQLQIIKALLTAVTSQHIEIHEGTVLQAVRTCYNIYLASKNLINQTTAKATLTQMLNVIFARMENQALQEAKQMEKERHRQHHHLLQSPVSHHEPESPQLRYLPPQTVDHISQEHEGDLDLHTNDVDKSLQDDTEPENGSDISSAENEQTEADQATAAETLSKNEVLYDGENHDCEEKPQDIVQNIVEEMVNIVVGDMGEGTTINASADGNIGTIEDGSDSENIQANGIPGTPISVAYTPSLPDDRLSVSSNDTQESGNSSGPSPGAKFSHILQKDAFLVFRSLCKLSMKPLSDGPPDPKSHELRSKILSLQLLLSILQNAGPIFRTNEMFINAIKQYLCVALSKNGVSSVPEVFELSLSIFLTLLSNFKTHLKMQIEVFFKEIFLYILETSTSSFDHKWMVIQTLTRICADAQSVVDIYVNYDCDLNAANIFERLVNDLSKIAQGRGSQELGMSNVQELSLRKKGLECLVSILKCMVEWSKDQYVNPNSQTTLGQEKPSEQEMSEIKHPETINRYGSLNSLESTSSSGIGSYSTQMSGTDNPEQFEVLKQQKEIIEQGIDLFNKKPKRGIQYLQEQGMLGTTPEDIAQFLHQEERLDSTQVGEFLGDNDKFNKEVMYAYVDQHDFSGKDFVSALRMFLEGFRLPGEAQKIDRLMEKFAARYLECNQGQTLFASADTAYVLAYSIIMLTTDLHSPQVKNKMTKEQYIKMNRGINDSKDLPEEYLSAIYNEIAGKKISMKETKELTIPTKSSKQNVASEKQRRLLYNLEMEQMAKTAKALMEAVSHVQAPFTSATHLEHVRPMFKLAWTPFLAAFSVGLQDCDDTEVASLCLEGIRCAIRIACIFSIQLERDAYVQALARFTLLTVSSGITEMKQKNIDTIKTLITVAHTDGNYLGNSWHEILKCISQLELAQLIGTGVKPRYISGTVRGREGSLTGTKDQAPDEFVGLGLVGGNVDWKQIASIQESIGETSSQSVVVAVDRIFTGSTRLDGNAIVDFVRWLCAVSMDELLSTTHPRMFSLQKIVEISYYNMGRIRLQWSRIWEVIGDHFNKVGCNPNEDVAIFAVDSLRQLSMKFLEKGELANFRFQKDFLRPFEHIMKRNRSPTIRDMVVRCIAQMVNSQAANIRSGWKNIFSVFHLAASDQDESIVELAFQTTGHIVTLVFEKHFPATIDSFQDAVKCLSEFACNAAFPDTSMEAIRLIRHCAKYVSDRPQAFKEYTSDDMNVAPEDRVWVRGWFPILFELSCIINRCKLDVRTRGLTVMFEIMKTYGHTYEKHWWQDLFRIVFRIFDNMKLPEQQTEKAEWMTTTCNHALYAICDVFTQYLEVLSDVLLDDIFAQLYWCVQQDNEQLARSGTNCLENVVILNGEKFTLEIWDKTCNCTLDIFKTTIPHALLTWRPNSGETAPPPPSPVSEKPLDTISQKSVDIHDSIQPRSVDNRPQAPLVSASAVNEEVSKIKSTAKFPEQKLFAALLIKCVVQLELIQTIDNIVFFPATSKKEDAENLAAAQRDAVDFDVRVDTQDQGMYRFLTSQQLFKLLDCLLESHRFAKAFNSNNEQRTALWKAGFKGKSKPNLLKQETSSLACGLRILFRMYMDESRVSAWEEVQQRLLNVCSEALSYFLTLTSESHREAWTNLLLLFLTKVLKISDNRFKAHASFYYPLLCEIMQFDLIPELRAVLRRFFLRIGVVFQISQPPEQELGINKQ

For the experiment, the target named is T1, MYCBP-LAP (human) (UniProt Q99417).
T1 sequence: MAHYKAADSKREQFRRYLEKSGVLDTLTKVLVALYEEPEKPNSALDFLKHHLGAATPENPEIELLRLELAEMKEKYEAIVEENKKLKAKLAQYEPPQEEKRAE
Briefly: affinity purification with mass spectrometry; MYCBP IP (this study) from human tissue culture cells, standard immunoprecipitation mass spectrometry.

These are yes or no findings as the source states them, for the method shown. Binding seen in cells or lysates may run through a third protein. Here binding means that the protein was enriched with, or labelled near, the bait; the list need not be complete. Sequences can lack the tags named with a protein.

With “Astrin (endogenous, HeLa cells) (from UniProt Q96R06 1-1193)”, the binding result is reported as “binds”.

Consider “SKAP (endogenous, HeLa cells) (from UniProt Q9Y448)”, for which the binding result is listed as “binds”.

With ARFGEF1 (from UniProt Q9Y6D6 1-1849), the binding entry is listed as “binds”.
